The experiment relates to RAW 264.7. As to the kind of experiment: cell viability (MTT) relative to vehicle control; higher = more viable cells. The conditions noted are these: stimulus: HMGB1 5 ug/ml, 18 h.
The mark [1] stands for this setting: compound concentration: 1 ug/ml.

Where a name gives a salt, the structure may show the parent alone. ± gives the standard deviation of the averaged measurements. This is one part of the list. Repeats are few or missing, and single values can be far off.

For the compound `COc1ccc2oc(-c3ccc(O)cc3)cc(=O)c2c1`, under setting [1], the cell viability amounted to 80.1%.
In the case of `CN1CCN(C2=Nc3ccccc3Sc3ccc(Cl)cc32)CC1` [Clothiapine], the cell viability (compound concentration: 3 uM) turned out to be 95%.
Same read-out and setting: for `CCC1=C[C@@H]2CN(C1)Cc1c([nH]c3ccccc13)[C@@](C(=O)OC)(c1cc3c(cc1OC)N(C)[C@H]1[C@@](O)(C(=O)OC)[C@H](OC(C)=O)[C@]4(CC)C=CCN5CC[C@]31[C@@H]54)C2` [Vinorelbine] the value was 100%; for `CC(C)CN(C[C@@H](O)[C@H](Cc1ccccc1)NC(=O)O[C@H]1CCOC1)S(=O)(=O)c1ccc(N)cc1` [Amprenavir], 101%; for `CNC(=C[N+](=O)[O-])NCCSCc1csc(CN(C)C)n1`, 102 ± 3.9%.
On the same count and under the same terms, then `CNC(=C[N+](=O)[O-])NCCSCc1csc(CN(C)C)n1` [Nizatidine], with 116%; and `O=C(O)C1=CCNCC1` [Isoguvacine hydrochloride], with 104%.
Same read-out and setting: then `COc1cc(C)nc(-n2nc(C)cc2OC)n1`, with 95.8%.
Turning to `COc1cc(C)nc(-n2nc(C)cc2OC)n1` [Epirizole], the cell viability (compound concentration: 3 uM) stood at 93.1%.
The same measure, in the same setting: for `CS(=O)(=O)Nc1ccc([N+](=O)[O-])cc1Oc1ccccc1` the value was 102%; for `CS(=O)(=O)Nc1ccc([N+](=O)[O-])cc1Oc1ccccc1` [Nimesulide], 104 ± 13%.
Turning to `NC(=O)c1cc[n+](CC2=C(C(=O)O)N3C(=O)[C@@H](NC(=O)C(c4ccccc4)S(=O)(=O)[O-])[C@H]3SC2)cc1` (some centres not stated) [Cefsulodin sodium salt hydrate], where the note is “compound concentration: 3 uM”, the cell viability stood at 109%.
Still for that read-out and setting: then `CCn1cc(C(=O)O)c(=O)c2cc(F)c(N3CCNC(C)C3)c(F)c21` (configuration not stated) [Lomefloxacin hydrochloride], with 112 ± 23%.
Turning to `CCn1cc(C(=O)O)c(=O)c2cc(F)c(N3CCNC(C)C3)c(F)c21` (configuration not stated) [Lomefloxacin], the cell viability (compound concentration: 3 uM) was 102%.
The same measure, in the same setting: for `CCn1cc(C(=O)O)c(=O)c2cc(F)c(N3CCNC(C)C3)c(F)c21` (configuration not stated) the value was 103%; for `O=c1ccc2c(OCCCCc3ccccc3)c3ccoc3cc2o1` [Psora-4], 94.2%.
Same read-out and setting: then `CNNCc1ccc(C(=O)NC(C)C)cc1` [Procarbazine hydrochloride], with 95.6%.
Still for that read-out and setting: then `CNNCc1ccc(C(=O)NC(C)C)cc1` [Procarbazine], with 102%; and `CNNCc1ccc(C(=O)NC(C)C)cc1`, with 93.6%.
With `Nc1ccc(C(=O)Oc2ccccc2)c(O)c1`, the cell viability (compound concentration: 3 uM) amounted to 115%.
On the same count and under the same terms, then `O=c1[nH]c(=O)n([C@H]2C[C@H](O)[C@@H](CO)O2)cc1F` [Floxuridine], with 102 ± 5.8%.
Still for that read-out and setting: then `O=c1[nH]c(=O)n([C@H]2C[C@H](O)[C@@H](CO)O2)cc1F`, with 95.53 ± 0.88%; and `CN(C)CCC=C1c2ccccc2C=Cc2ccccc21` [Cyclobenzaprine hydrochloride], with 105 ± 18%.
Same read-out and setting: then `CN(C)CCC=C1c2ccccc2C=Cc2ccccc21`, with 111%; and `CN(C)CCc1c[nH]c2ccc(C[C@H]3COC(=O)N3)cc12` [Zolmitriptan], with 97.53 ± 0.25%; and `CN(C)CCc1c[nH]c2ccc(C[C@H]3COC(=O)N3)cc12`, with 109%.
Turning to `COc1cc(/C=C/C(=O)O)ccc1O`, the cell viability (compound concentration: 3 uM) was 98.8%.
Same read-out and setting: then `C[N+]1(C)CCC(=C(c2ccccc2)c2ccccc2)CC1` [Diphemanil methylsulfate], with 110%; and `NS(=O)(=O)c1cc2c(cc1Cl)NCNS2(=O)=O` [Hydrochlorothiazide], with 101 ± 12%.
The same measure, in the same setting: for `NS(=O)(=O)c1cc2c(cc1Cl)NCNS2(=O)=O` the value was 101%; for `CC(C)OC(=O)CCC/C=C\C[C@@H]1[C@@H](CC[C@@H](O)CCc2ccccc2)[C@H](O)C[C@@H]1O`, 96.5%; for `CC(C)OC(=O)CCC/C=C\C[C@@H]1[C@@H](CC[C@@H](O)CCc2ccccc2)[C@H](O)C[C@@H]1O` [Latanoprost], 113%.
Same read-out and setting: for `COc1cc(C)c(/C=C/C(C)=C/C=C/C(C)=C/C(=O)O)c(C)c1C` [Acitretin] the value was 115%.
Regarding `C[C@@H]1C(=O)O[C@H]2C[C@@]34[C@H]5C[C@@H](C(C)(C)C)[C@]36[C@@H](OC(=O)[C@@H]6O)O[C@@]4(C(=O)O5)[C@]21O` [Ginkgolide A], the cell viability reads like this: under setting [1], 98.7%; (compound concentration: 3 uM) 115%.
Turning to `CC(c1cc2ccccc2s1)N(O)C(N)=O` (configuration not stated), the cell viability (compound concentration: 3 uM) worked out at 99.1 ± 3.9%.
On the same count and under the same terms, for `CC(c1cc2ccccc2s1)N(O)C(N)=O` (configuration not stated) [Zileuton] the value was 111 ± 4.5%.

By cell viability is commonly meant a read-out of living cells in per cent, often relative to untreated cells.

(Values after the supplement of paper PMC3682954.)
